Results on two molecules are retold here after paper PMC8037196.

Amino acid sequences for entries named in this document (tags omitted).
UniProt Q8TD43: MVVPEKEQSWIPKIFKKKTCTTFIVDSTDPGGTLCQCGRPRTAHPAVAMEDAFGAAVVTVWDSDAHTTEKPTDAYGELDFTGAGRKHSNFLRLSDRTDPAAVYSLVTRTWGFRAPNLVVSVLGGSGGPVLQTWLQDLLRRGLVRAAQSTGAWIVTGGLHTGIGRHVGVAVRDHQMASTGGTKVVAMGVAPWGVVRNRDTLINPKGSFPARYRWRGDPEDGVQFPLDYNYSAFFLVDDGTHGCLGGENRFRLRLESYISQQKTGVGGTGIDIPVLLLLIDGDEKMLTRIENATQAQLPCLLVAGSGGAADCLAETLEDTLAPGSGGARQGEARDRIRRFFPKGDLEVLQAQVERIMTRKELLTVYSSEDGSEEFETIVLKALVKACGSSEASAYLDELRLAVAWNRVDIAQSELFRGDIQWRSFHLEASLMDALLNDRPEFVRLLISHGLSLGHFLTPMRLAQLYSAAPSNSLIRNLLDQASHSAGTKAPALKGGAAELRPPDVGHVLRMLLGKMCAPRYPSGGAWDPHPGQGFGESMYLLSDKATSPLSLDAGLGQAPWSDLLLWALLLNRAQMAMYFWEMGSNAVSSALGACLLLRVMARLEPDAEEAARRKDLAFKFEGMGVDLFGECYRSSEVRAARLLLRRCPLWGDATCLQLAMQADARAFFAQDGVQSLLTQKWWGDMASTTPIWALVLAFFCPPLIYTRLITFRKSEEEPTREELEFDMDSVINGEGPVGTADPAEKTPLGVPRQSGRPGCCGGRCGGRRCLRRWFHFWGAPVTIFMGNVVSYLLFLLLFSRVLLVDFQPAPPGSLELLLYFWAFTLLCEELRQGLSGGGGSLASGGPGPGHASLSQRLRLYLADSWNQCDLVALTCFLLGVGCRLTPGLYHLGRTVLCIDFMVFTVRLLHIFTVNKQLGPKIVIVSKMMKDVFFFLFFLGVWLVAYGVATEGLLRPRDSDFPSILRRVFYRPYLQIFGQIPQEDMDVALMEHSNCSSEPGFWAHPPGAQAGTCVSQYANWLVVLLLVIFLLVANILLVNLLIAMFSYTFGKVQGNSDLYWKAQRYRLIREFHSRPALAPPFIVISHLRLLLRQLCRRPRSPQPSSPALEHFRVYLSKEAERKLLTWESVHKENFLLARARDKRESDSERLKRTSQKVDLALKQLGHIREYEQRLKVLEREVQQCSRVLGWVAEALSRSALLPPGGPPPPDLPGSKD

This assay addresses FLAG-tagged human-Nav1.5 (human) (UniProt Q14524). In words: co-IP; HEK-293 cells co-transfected, lysed 48 h after transfection; 2 mg total protein incubated with anti-FLAG Dynabeads for 1 h at 4 °C, washed with lysis buffer, eluted into sample buffer, Western blot. Background: A western blot detects proteins with antibodies after separation by electrophoresis.

Results are given in words; binding and its absence hold for the method and conditions named. Binding seen in cells or lysates may run through a third protein. Some results given as binding are weak or reduced against the parent protein; the word gives no strength.

For “human-TRPM4 (from UniProt Q8TD43 1-1214)”, the binding result was “binds”.

B1: TRPM5 (protein, UniProt Q9NZQ8 1-1165)
chain: MQDVQGPRPGSPGDAEDRRELGLHRGEVNFGGSGKKRGKFVRVPSGVAPSVLFDLLLAEWHLPAPNLVVSLVGEEQPFAMKSWLRDVLRKGLVKAAQSTGAWILTSALRVGLARHVGQAVRDHSLASTSTKVRVVAVGMASLGRVLHRRILEEAQEDFPVHYPEDDGGSQGPLCSLDSNLSHFILVEPGPPGKGDGLTELRLRLEKHISEQRAGYGGTGSIEIPVLCLLVNGDPNTLERISRAVEQAAPWLILVGSGGIADVLAALVNQPHLLVPKVAEKQFKEKFPSKHFSWEDIVRWTKLLQNITSHQHLLTVYDFEQEGSEELDTVILKALVKACKSHSQEPQDYLDELKLAVAWDRVDIAKSEIFNGDVEWKSCDLEEVMVDALVSNKPEFVRLFVDNGADVADFLTYGRLQELYRSVSRKSLLFDLLQRKQEEARLTLAGLGTQQAREPPAGPPAFSLHEVSRVLKDFLQDACRGFYQDGRPGDRRRAEKGPAKRPTGQKWLLDLNQKSENPWRDLFLWAVLQNRHEMATYFWAMGQEGVAAALAACKILKEMSHLETEAEAARATREAKYERLALDLFSECYSNSEARAFALLVRRNRCWSKTTCLHLATEADAKAFFAHDGVQAFLTRIWWGDMAAGTPILRLLGAFLCPALVYTNLITFSEEAPLRTGLEDLQDLDSLDTEKSPLYGLQSRVEELVEAPRAQGDRGPRAVFLLTRWRKFWGAPVTVFLGNVVMYFAFLFLFTYVLLVDFRPPPQGPSGPEVTLYFWVFTLVLEEIRQGFFTDEDTHLVKKFTLYVGDNWNKCDMVAIFLFIVGVTCRMLPSAFEAGRTVLAMDFMVFTLRLIHIFAIHKQLGPKIIVVERMMKDVFFFLFFLSVWLVAYGVTTQALLHPHDGRLEWIFRRVLYRPYLQIFGQIPLDEIDEARVNCSTHPLLLEDSPSCPSLYANWLVILLLVTFLLVTNVLLMNLLIAMFSYTFQVVQGNADMFWKFQRYNLIVEYHERPALAPPFILLSHLSLTLRRVFKKEAEHKREHLERDLPDPLDQKVVTWETVQKENFLSKMEKRRRDSEGEVLRKTAHRVDFIAKYLGGLREQEKRIKCLESQINYCSVLVSSVADVLAQGGGPRSSQHCGEGSQLVAADHRGGLDGWEQPGAGQPPSDT
Consider B1, for which the binding entry was “no binding”.
